Laboratory results as given in PubChem BioAssay AID1347426 (Functional Genomics Laboratory (NCATS/FGL), 2020).
The whole screen tested about 31,000 sequences, of which about 1,400 (4.5%) were called active.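 Rule for the calls: active = median seed-adjusted z-score above 1 or below -1; inactive = the rest.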 The list shows a part of the results.

Assay: Novel Modifiers of Survival Motor Neuron (SMN) Protein: Gene Identification via Genome-wide siRNA Screen;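 note: luminescence tracks full-length SMN protein made from the SMN2 reporter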
Details: HEK293T SMN2-luciferase reporter, siRNA knockdown, 72 h; actives lie on both sides
Method in brief: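 siRNA screen, 10418 genes ×3 siRNAs; 1 pmol/well, lipid reverse transfection into HEK293T SMN2-luc reporter line. 72 h, 37 °C, 5% CO2; ONE-Glo readout. Data: neg-ctrl normalized, log10, MAD; hit = MAD >1.0 or < -1.0.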
With CAGACGUGAUGACAAGAUUTT against S100A7 the median seed-adjusted z-score was inactive: -0.253. With CUACAAGCAUCGAUAGUAATT against EIF4G3 the median seed-adjusted z-score was inactive: -0.0562. In the case of GAGUCAGAGUCAUUACUCATT against ZNF142, the median seed-adjusted z-score was inactive: 0.111. With ACAUUCAUCUCAACCUCGATT against RBM8A the median seed-adjusted z-score was inactive: 0. In the case of CAGGCACAUGAGUAACAAATT against ESR1, the median seed-adjusted z-score was inactive: -0.408. With GCAGCGAUAGUACUAAUGATT against KIT the median seed-adjusted z-score was inactive: -0.686. With GAUGAUCUGUGAGACCAAATT against BOC the median seed-adjusted z-score was inactive: -0.0192. With AUGUACAAGUGUCAGCUAATT against VEGFC the median seed-adjusted z-score was inactive: -0.41. For GCUACUUGAACUACCCUAATT against ARIH1, the median seed-adjusted z-score was inactive: -0.443. With GCUUUGAUGAGACCCGCUATT against HGFAC the median seed-adjusted z-score was inactive: 0.021. With CGAUGGGUCUGUGCACAAATT against TGM2 the median seed-adjusted z-score was inactive: 0.413. In the case of CCAUAGGUGUCAUCGCCUATT against CAMK1, the median seed-adjusted z-score was inactive: 0.325. In the case of GGCCUUACGGGUGUAGUAATT against ZNF419, the median seed-adjusted z-score was inactive: 0.0405. With GCUCGCAACAAAGAAUUAATT against CTNND1 the median seed-adjusted z-score was inactive: 0.38. In the case of GAGUAGAGUUUGACGAGUATT against RBP2, the median seed-adjusted z-score was inactive: 0.0132. For GGCAAAUAGUGUCAUCGAUTT against NPNT, the median seed-adjusted z-score was inactive: 0.164. With CGUCGUUACUCAGAACUUATT against ZFP30 the median seed-adjusted z-score was inactive: 0.211. For CUAUCCCACUAGACUCAAATT against SLC22A10, the median seed-adjusted z-score was inactive: -0.0897. For GCGAGUUUCUGGUCAACGATT against HOXC12, the median seed-adjusted z-score was inactive: 0.788. With GUCCAUAUGAGAAAGUAAATT against SPINK5L2 the median seed-adjusted z-score was inactive: 0.482. For GAAGAUCCGUGACGACGAATT against SURF6, the median seed-adjusted z-score was inactive: 0.122. In the case of AGCCUUUAAUCGGUGCUCATT against ZNF682, the median seed-adjusted z-score was inactive: -0.155. In the case of GGGUCACCGUCAAUGGGAATT against IFI30, the median seed-adjusted z-score was inactive: 0.401. With GUAUGGAGAUUAUCAACCATT against PTPN13 the median seed-adjusted z-score was inactive: 0.0682. In the case of GCUUUGACCCUCUCCUAUATT against CYSLTR1, the median seed-adjusted z-score was inactive: 0.364. With CCUGCAAAGCUGAUGCUAATT against PVRL1 the median seed-adjusted z-score was inactive: -0.362. In the case of CGACAUCAGAGAGAAUUAATT against RHOXF1, the median seed-adjusted z-score was inactive: 0.341. For CAAACAGGCUGGUGAAUUATT against SMA4, the median seed-adjusted z-score was inactive: 0.291. In the case of GGAAUAUCGUGGAGUGUAATT against ZNFX1, the median seed-adjusted z-score was inactive: -0.368. For GGAAAUCCAUCUACCGCUATT against SORL1, the median seed-adjusted z-score was inactive: 0.357. For GCACUGUCUUUGUAUCUGATT against SFXN2, the median seed-adjusted z-score was inactive: 0.365. For CCAUUGCCAUCUACCUGCUTT against SCO2, the median seed-adjusted z-score was inactive: 0.848. In the case of GCCCUACUCUUGCUACGGATT against NKX2-6, the median seed-adjusted z-score was inactive: -0.00448. In the case of GAUUCUCCGAAUGAAGUUATT against LIPH, the median seed-adjusted z-score was inactive: 0.0437. In the case of AGUCGGAUCUGGACAAUGATT against CIB4, the median seed-adjusted z-score was inactive: -0.638. For GCAGAACUCUCAAGGUCCATT against CDH7, the median seed-adjusted z-score was inactive: 0. In the case of GGAUUGAUUUGUCGGACUATT against CABIN1, the median seed-adjusted z-score was inactive: -0.446. For GCAUGUCGCCGAGAACCUUTT against GJC3, the median seed-adjusted z-score was inactive: -0.137. For CGACAAGCCCAAUGUUUAUTT against SSU72, the median seed-adjusted z-score was active: -1.64. In the case of GGAGUAUGCUUGCAUGAAATT against NR6A1, the median seed-adjusted z-score was inactive: -0.287. In the case of CCAUCAGUCUGGAUGUAAATT against SLC13A4, the median seed-adjusted z-score was inactive: 0.446. In the case of AGACCAAACAGGUGACUGUTT against GPHB5, the median seed-adjusted z-score was inactive: -0.533. In the case of CCAAGUUAUCUGUACAGCATT against SLC18A2, the median seed-adjusted z-score was inactive: 0.777. For GCAUUGUCAUUGCAAUUAATT against CLCA3, the median seed-adjusted z-score was inactive: 0.424. For GGAGGAACUCGAAUCAUUUTT against EIF4EBP2, the median seed-adjusted z-score was inactive: 0.517. For CAUCCAGGCGGAGAAAGGATT against MEOX1, the median seed-adjusted z-score was inactive: 0.0171. For CCAACUACCUGAACGAUGATT against U2AF2, the median seed-adjusted z-score was active: 2.14. For GCAACUCCAAUGUCAGUGATT against TAF9B, the median seed-adjusted z-score was inactive: -0.0247. In the case of GGAGCUCAUCGAGAUCUCATT against CABP2, the median seed-adjusted z-score was inactive: 0.323. For CCGAUUGUACAGUAAAUUUTT against PTS, the median seed-adjusted z-score was inactive: -0.103. In the case of CAUCACCACUAGCAGCAUATT against ANK3, the median seed-adjusted z-score was inactive: 0.0252. In the case of GGAUAAUAAGGAUCUAUUUTT against CPNE3, the median seed-adjusted z-score was inactive: 0.109. With GCUAUACCCUCGUUGAACATT against ZNF416 the median seed-adjusted z-score was inactive: 0.668. In the case of CAUUCAACCGCAUCGCAAATT against ZNF624, the median seed-adjusted z-score was inactive: 0.378. With GGAUCUUUGCAGUUGGGUATT against MACF1 the median seed-adjusted z-score was inactive: -0.146. With CGGUUUGCCUCAUUCCGAATT against GLDC the median seed-adjusted z-score was inactive: 0. With GGAACUAAACUUGAUCUUATT against RAC1 the median seed-adjusted z-score was inactive: -0.0348. For CGAUGAUGUGCUGACUAAATT against ZNRF1, the median seed-adjusted z-score was inactive: -0.808. In the case of GGAGUGAUUCACUUACUUUTT against DDX3Y, the median seed-adjusted z-score was inactive: -0.149. With CACUCGCACACCAACCUUATT against PIR the median seed-adjusted z-score was inactive: 0.169. With GAUGGAUUCUUGUUCCGUUTT against KCTD16 the median seed-adjusted z-score was inactive: 0.00219. In the case of GGCUUGAAGUCAUCGAACATT against MAP3K10, the median seed-adjusted z-score was inactive: 0.201. In the case of GAACCGUAAUGAUGAUAGATT against SFRS15, the median seed-adjusted z-score was inactive: 0.22. For GCUUUAUCCACGACAAUGATT against DSCAML1, the median seed-adjusted z-score was inactive: 0.237. In the case of CCAGCAUCCCUAGCUCAGATT against SYVN1, the median seed-adjusted z-score was active: -1.41. In the case of GGGUUUGCACUGAAACGAATT against CIR, the median seed-adjusted z-score was inactive: -0.197. With GGAAGAUUACUACCAUUUUTT against PCSK6 the median seed-adjusted z-score was inactive: 0. In the case of CGUCUUUAGCUGUCAAUAATT against RBM5, the median seed-adjusted z-score was inactive: -0.289. In the case of AGGGAGUUUCUUGCAGUGATT against ADD2, the median seed-adjusted z-score was inactive: -0.176. For ACACUAUCCUGGAUAUUCUTT against GMPR, the median seed-adjusted z-score was inactive: 0.0757. With GGACUUCAGUUAUAGUUCATT against ZNF227 the median seed-adjusted z-score was inactive: 0.0194. In the case of GCACGAAUGAGGACGAUGATT against SPRY4, the median seed-adjusted z-score was active: -1.23. With CACCAACACGAGAAAGUCATT against GLT8D2 the median seed-adjusted z-score was inactive: -0.619. For GGUUGGAACUCGUUCCUCATT against NLGN4X, the median seed-adjusted z-score was inactive: -0.1. For GCACCUUAAUUAAGAUCUUTT against ITGA9, the median seed-adjusted z-score was inactive: 0. For GCUGUUCAGUGUGCCUGCATT against RNF152, the median seed-adjusted z-score was inactive: -0.745. In the case of CCGGUAUUAUUCUAAUGAATT against TMTC2, the median seed-adjusted z-score was inactive: 0.0277. In the case of GCAACUAUUUUGUGGGCUUTT against PORCN, the median seed-adjusted z-score was inactive: 0.214. In the case of CUUGUUACCUUGUUUGUCATT against GRM1, the median seed-adjusted z-score was inactive: 0.0376. For GUCUGGAACUUGCAGUGCATT against RDH8, the median seed-adjusted z-score was inactive: -0.657. In the case of GAAUGAUAAUGGGUAUUAUTT against SEC24D, the median seed-adjusted z-score was inactive: 0.529. With AGACUAUUCCCUCCGUUUATT against GFI1 the median seed-adjusted z-score was inactive: -0.047. In the case of AAGCAGGACUUCAACCGUATT against RAPGEF3, the median seed-adjusted z-score was inactive: -0.481. In the case of CCAACAGGAGAGUACGUGATT against STRADA, the median seed-adjusted z-score was inactive: 0.415. In the case of CGGAAUUUGUCAUUCAAGATT against RCN2, the median seed-adjusted z-score was inactive: -0.112. With GCAUGGAUCCGAAGUCGAATT against ABCA12 the median seed-adjusted z-score was inactive: 0.0759. With CGAUGGUUGACAAUCCAGATT against NDUFS5 the median seed-adjusted z-score was active: -1.35. In the case of GAUGAUGGAUGUCUAGAAATT against SCG5, the median seed-adjusted z-score was inactive: 0.573. With GCGACGACCUCGACUUUGATT against SLC32A1 the median seed-adjusted z-score was inactive: -0.251. With GGAUAUGGAUUGCGUAUAUTT against IL13RA2 the median seed-adjusted z-score was inactive: 0.113. With GGCCUACGUUUGAAAGACATT against ZNF792 the median seed-adjusted z-score was inactive: 0. With GACCAUCUCUUAUGACCCATT against CA5B the median seed-adjusted z-score was inactive: 0.317. For CAACAAGAAUACACGGAAATT against TRIM25, the median seed-adjusted z-score was inactive: 0.859. In the case of GCACAACGUGAUUAAGACATT against PSMD3, the median seed-adjusted z-score was inactive: 0.47. For ACUUAGAACUCGAGAUUCATT against OLIG1, the median seed-adjusted z-score was inactive: -0.387. With CAAGCAAGGUGCAAGAACATT against KEL the median seed-adjusted z-score was inactive: 0. For GGAUAAUCUAUGAAGACUATT against RGS20, the median seed-adjusted z-score was inactive: -0.34. For CAGCAGAGGAUAUCACUUATT against ZNF202, the median seed-adjusted z-score was inactive: 0.534. For GGCUUCUUCUCGUGCAUCATT against KCNK3, the median seed-adjusted z-score was inactive: 0. With AACUGGACCUUAAAAAGAATT against POU4F3 the median seed-adjusted z-score was inactive: 0. For GGUUUUCCGCAGCUACGUUTT against BAK1, the median seed-adjusted z-score was inactive: 0.0419. For GCAUAUCAAUCUCCAGGGATT against NLRC3, the median seed-adjusted z-score was inactive: 0.323. In the case of GGAAUAAUCUGCCUAAAUATT against APOBEC3G, the median seed-adjusted z-score was inactive: 0.00539. With GUUACUCACAUUUUCUUUATT against AKR7A3 the median seed-adjusted z-score was inactive: 0.455. With GAGCGAUCGUAGAAACACATT against HRK the median seed-adjusted z-score was inactive: 0.217. With CCCUGUUCAUUGCCCUGUATT against FGR the median seed-adjusted z-score was inactive: 0.596. With CCUUGGAGCCCAUAACAUATT against CMA1 the median seed-adjusted z-score was inactive: -0.0475. In the case of CUACCUUGCCUGCUCCUAUTT against KDELR2, the median seed-adjusted z-score was inactive: 0.
